The results in this text go back to publication PMC11492869, “Dimerization and lysine substitution of melittin have differing effects on bacteria” (Frontiers in Pharmacology, 2024).

The structures appear in SMILES notation. Values after ≈ are worked out from the molar mass of the structure shown.

The test relates to S. aureus ATCC 29213. The experiment in a line: Minimum inhibitory concentration (modified CLSI broth microdilution). It counts as cell-based. The conditions noted are these: Staphylococcus aureus, ATCC29213, cation-adjusted MHB, 1 × 10^5 cells/well, 90 min incubation with peptide at 37°C, then growth monitored 20 h at OD630, Lambert and Pearson analysis, mean ± SD, at least three biological repeats. The protocol: For the antimicrobial peptide assays, a 10 mL starter culture was produced by taking single colonies from LB agar plates to inoculate in Lysogeny/Luria Broth (1% w/v Oxoid Tryptone, 0.5% w/v NaCl, 0.5% w/v Oxoid Yeast Extract, pH 7.0, Thermo Scientific Pty, Ltd., Sydney, Australia) for bacteria; S. aureus ATCC 29213 and E. coli ATCC 8739 were grown aerobically at 37°C in an orbital shaker (Minitron, Infors HT) at 200 rpm. After overnight incubation, 0.5–1.0 mL of the starter culture was used to inoculate fresh LB broth (20 mL), and its growth was monitored at 600 nm using a spectrophotometer (model Varian Cary 50 Bio UV-Vis). Bacteria were harvested during the late exponential growth phase, and CFUs/mL were determined using the growth curve data set that correlated OD600 to CFUs/mL.
Antibacterial assays were undertaken to determine the minimum inhibitory concentration (MIC), the minimum bactericidal concentration (MBC), and the level of membrane disruption of each of the antimicrobial peptides (AMPs) and multimerized AMPs. For each bacterium, a stock solution (2 × 10^6 cells/mL) in cation-adjusted Mueller Hinton Broth (MHB) was made, and an aliquot was incubated with AMPs within 15 min from viable cell count and stock preparation. […] After the 90-min incubation period, the antimicrobial activity (MIC and MBC) was determined as follows: […]
(Broth dilution looks for growth in wells or tubes with falling amounts of substance.)

For `CN[C@H](CC(C)C)C(=O)N[C@H]1C(=O)N[C@@H](CC(N)=O)C(=O)N[C@H]2C(=O)N[C@H]3C(=O)N[C@H](C(=O)N[C@H](C(=O)O)c4cc(O)cc(O)c4-c4cc3ccc4O)[C@H](O)c3ccc(c(Cl)c3)Oc3cc2cc(c3O[C@@H]2O[C@H](CO)[C@@H](O)[C@H](O)[C@H]2O[C@H]2C[C@](C)(N)[C@H](O)[C@H](C)O2)Oc2ccc(cc2Cl)[C@H]1O` [Vancomycin], the MIC (commonly the lowest concentration that inhibits growth of the organism) was determined as 1.8 ± 0.4 µM (≈ 2.61 µg/mL).
